# Source: the supplement of paper PMC7752906
# Where a name gives a salt, the structure may show the parent alone. The list shows a part of the results. Repeats in this data set agree poorly, so a single value says little.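 Wells held roughly 40 S. mansoni schistosomula, imaged in bright field over time against wells given 0.1% DMSO. The paper defines hits as drugs with a Mahalanobis distance of at least 2.47, three standard deviations above the DMSO control mean. Degeneracy is the proportion of worms classified as opaque.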
# Tested on: Schistosoma mansoni schistosomula
# Test: degeneracy (percent of somules classified as degenerate/opaque); higher = more parasite degeneration/death; extreme values may be limits of the assay
# Conditions: 10 µM; 72 h
row,SMILES,degeneracy [%]
1,C=C[C@@]1(C)CC(=O)[C@]2(O)[C@@]3(C)[C@@H](O)CCC(C)(C)[C@@H]3[C@H](O)[C@H](OC(C)=O)[C@@]2(C)O1 [Colforsin],3.12
2,CN(Cc1cnc2nc(N)nc(N)c2n1)c1ccc(C(=O)NC(CCC(=O)O)C(=O)O)cc1 (racemic) [Methotrexate(+/-)],0
3,CCN(CC)C(=S)SSC(=S)N(CC)CC [Disulfiram],100
4,C/C(=C(\CCOP(=O)(O)O)SC(=O)c1ccccc1)N(C=O)Cc1cnc(C)nc1N [Benfotiamine],5.56
5,C[C@H](N)[C@H](O)c1cccc(O)c1 [Metaraminol],0
6,C[C@H](N)[C@H](O)c1cccc(O)c1 [Metaraminol Bitartrate],0
7,CC1(C)S[C@@H]2[C@H](NC(=O)C(C(=O)O)c3ccccc3)C(=O)N2[C@H]1C(=O)O (stereo not given in full) [Carbenicillin Disodium],8.89
8,O=C1CN(/N=C/c2ccc([N+](=O)[O-])o2)C(=O)N1 [Nitrofurantoin],0
9,Cc1ccccc1OCC(O)CO (stereo not given) [Mephenesin],2.22
10,CN[C@@H]1[C@@H](O)[C@@H](O[C@@H]2[C@@H](O)[C@H](O[C@H]3OC(CN)=CC[C@H]3N)[C@@H](N)C[C@H]2N)OC[C@]1(C)O [Sisomicin Sulfate],0
11,Cc1cc(NS(=O)(=O)c2ccc(N)cc2)no1 [Sulfamethoxazole],2.94
12,O=C1CN(/N=C/c2ccc(-c3ccc([N+](=O)[O-])cc3)o2)C(=O)N1 [Dantrolene],2.63
13,CCOC(=O)n1ccn(C)c1=S [Carbimazole],8.57
14,C(=C\c1ccccc1)/CN1CCN(C(c2ccccc2)c2ccccc2)CC1 [Cinnarazine],23.5
15,Cc1c(-c2cnccn2)ssc1=S [oltipraz],100
16,C[C@@H]1C[C@H]2[C@@H]3CCC4=CC(=O)C=C[C@]4(C)[C@@]3(F)[C@@H](O)C[C@]2(C)[C@@]1(O)C(=O)COP(=O)(O)O [Dexamethasone Sodium Phosphate],3.33
17,C[C@@H]1C[C@H]2[C@@H]3CCC4=CC(=O)C=C[C@]4(C)[C@@]3(F)[C@@H](O)C[C@]2(C)[C@@]1(O)C(=O)COP(=O)(O)O [Dexamethasone Phosphate],5.88
18,CCN(CC)CCNC(C(=O)OCCC(C)C)c1ccccc1 (stereo not given) [Camylofine Dihydrochloride],9.76
19,OCCN(CCO)c1nc(N2CCCCC2)c2nc(N(CCO)CCO)nc(N3CCCCC3)c2n1 [Dipyridamole],29.2
20,O=C(O)c1ccccc1C(=O)Nc1ccc(S(=O)(=O)Nc2nccs2)cc1 [Phthalylsulfathiazole],4.17

# Random excerpt: 2 records from the list.
row,SMILES,degeneracy [%]
9,Cc1ccccc1OCC(O)CO (stereo not given) [Mephenesin],2.22
5,C[C@H](N)[C@H](O)c1cccc(O)c1 [Metaraminol],0
